Reference: PubChem BioAssay AID2727 (Broad Institute, 2010)
Inconclusive results, whose numbers are uncertain, are shown with a selection of clear calls. Active and inactive are the calls of the source.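 Rule for the calls: active = inhibition above about 80% in every replicate, not just on average (limit read from the data); inconclusive = at least half of replicates past the limit, but not all; inactive = fewer than half of replicates past the limit.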

Experiment: luminescence decrease in constitutive quorum sensing strain – strain BB721, luminescence readout, counter-screen for LuxS inhibitor project, confirmation (AID 2727)
Conditions: Vibrio harveyi BB721 luminescence, 9 h; at 7.5 µM; stronger effect = higher value
Method in brief: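 Material: Vibrio harveyi BB721, quorum sensing constitutively active / Medium: AB bacterial medium / Schedule: 9 h exposure at 30 °C / Measure: luminescence decrease marking disrupted downstream quorum sensing signalling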

SMILES | inhibition
CCN(c1ccc(NC(=O)CN2C(=O)NC3(CCOc4ccccc43)C2=O)cc1)C(C)C (stereo not drawn) | inconclusive: 78.4%
CCCC1(c2ccccc2)NC(=O)N(CC(=O)Nc2cc(OC)cc(OC)c2)C1=O (stereo not drawn) | inconclusive: 77.4%
CN(C)S(=O)(=O)c1ccc(C(=O)OCC(=O)c2ccc3c(c2)NC(=O)CO3)cc1 | inconclusive: 76.3%
O=C(Nc1ccc(Nc2ccccc2)cc1)c1ccc(Cl)cc1[N+](=O)[O-] | inconclusive: 74.1%
CC(C)(C)c1ccc(OCC(=O)NN2Cc3ccccc3C2=N)cc1 | inconclusive: 73.4%
Cc1cccc(NS(=O)(=O)c2ccc(Oc3ccccc3)cc2)n1 | inactive: 11.1%
CCc1ccc(S(=O)(=O)Nc2ccc(Br)cn2)cc1 | inactive: -10.5%
CCOc1cccc2c1OC1(C)CC2NC(=O)N1c1cccc(C(=O)NCc2ccccn2)c1 (stereo not drawn) | inactive: -5.56%
COc1ccc(CNC(=O)c2cc(-c3cc(C)ccc3O)n[nH]2)cc1 | inconclusive: 74.6%
CCc1ccc(OCC(=O)Nc2ccncc2)c(Br)c1 | inconclusive: 73.8%
CN(C)S(=O)(=O)c1ccc(NC(=O)CN2C(=O)NC3(CCCC3)C2=O)cc1 | inconclusive: 79.3%
O=C(Cc1ccc(Br)cc1)Nc1ccc(S(=O)(=O)N2CCCC2)cc1 | inconclusive: 92.6%
O=C(/C=C/c1ccccc1Cl)NCc1cccs1 | active: 97.2%

2 entries picked at random from the list so far:
SMILES | inhibition
CCOc1cccc2c1OC1(C)CC2NC(=O)N1c1cccc(C(=O)NCc2ccccn2)c1 (stereo not drawn) | inactive: -5.56%
CCN(c1ccc(NC(=O)CN2C(=O)NC3(CCOc4ccccc43)C2=O)cc1)C(C)C (stereo not drawn) | inconclusive: 78.4%
